Measured data: PubChem BioAssay AID1259254 (NCATS, 2017)
In all, the deposit lists about 59,000 reagents; shown is a random part of them. About 1,550 of them (2.6%) were called active. 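G2 share is only a proxy for re-replication; each gene was hit by three separate siRNAs, and active genes were retested.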 Raw values are not corrected between plates. The numbers tell different reagents against one gene apart. Not given: the amount of reagent.

Test: 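Genome-wide screen for genes that prevent DNA re-replication in cancer cells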 (primary screen)
Cells: human HCT116 colorectal cancer cells
Reagents: single siRNA against human genes
Time to read-out: 3 days
Detection: 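Nuclei stained with Hoechst and imaged; cell-cycle phase assigned by DNA content; G2 share scaled per plate, non-targeting siRNA 0%, GMNN siRNA 100%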
Direction: G2 robust z-score and G2 cells, % of GMNN control: higher = more G2 cells, more excess DNA replication; raw share of cells in G2: higher = larger share of cells with G2 DNA content
Rule for the call: 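Active siRNAs have a G2 robust z of 5 or more median absolute deviations over the median, which in these data means about 38% or higher of GMNN control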

target,reagent,G2 robust z-score,"G2 cells, % of GMNN control",raw share of cells in G2 (%),call
RAI1,1,0.743,8.2,6.25,inactive
RAI1,2,-1.54,-7.87,2.48,inactive
RAI1,3,1.48,13.4,8.95,inactive
CENPQ,1,-1.35,-6.55,2.01,inactive
CENPQ,2,0.68,7.75,7.35,inactive
CENPQ,3,0.291,5.02,4.74,inactive
SRPK2,1,-1.03,-4.25,4.2,inactive
SRPK2,2,-0.578,-1.1,5.04,inactive
SRPK2,3,-0.373,0.344,4.15,inactive
PNMA8B,1,-0.972,-3.87,2.82,inactive
PNMA8B,2,-0.56,-0.97,4,inactive
PNMA8B,3,-0.887,-3.27,1.99,inactive
PIK3CG,1,5.43,41.2,19.2,active
PIK3CG,2,-1.43,-7.09,3.02,inactive
PIK3CG,3,0.0805,3.53,5.27,inactive
OTUD7A,1,-0.467,-0.318,4.57,inactive
OTUD7A,2,-0.665,-1.71,5.14,inactive
OTUD7A,3,5.33,40.5,19.5,active
RRAS2,1,3.62,28.5,17.8,inactive
RRAS2,2,-0.286,0.954,4.47,inactive
RRAS2,3,3.74,29.3,13.9,inactive
MSMO1,1,-0.708,-2.02,3.47,inactive
MSMO1,2,-0.448,-0.181,4.92,inactive
MSMO1,3,-0.219,1.43,5.22,inactive
MAVS,1,0.586,7.09,7.14,inactive
MAVS,2,0.265,4.83,6.77,inactive
MAVS,3,-0.301,0.851,3.3,inactive
ELOVL3,1,-0.0434,2.66,5.16,inactive
ELOVL3,2,1.19,11.3,8.98,inactive
ELOVL3,3,-0.949,-3.71,3.89,inactive

Records listed so far whose gene name begins with P or p (6):
target,reagent,G2 robust z-score,"G2 cells, % of GMNN control",raw share of cells in G2 (%),call
PNMA8B,1,-0.972,-3.87,2.82,inactive
PNMA8B,2,-0.56,-0.97,4,inactive
PNMA8B,3,-0.887,-3.27,1.99,inactive
PIK3CG,1,5.43,41.2,19.2,active
PIK3CG,2,-1.43,-7.09,3.02,inactive
PIK3CG,3,0.0805,3.53,5.27,inactive
